Results are given in words; binding and its absence hold for the method and conditions named. In cells and extracts the contact can be indirect. Some entries that bind do so weakly or less than the wild type.

The target of the test is T1, NRP1-hFc (UniProt O14786).
T1 sequence: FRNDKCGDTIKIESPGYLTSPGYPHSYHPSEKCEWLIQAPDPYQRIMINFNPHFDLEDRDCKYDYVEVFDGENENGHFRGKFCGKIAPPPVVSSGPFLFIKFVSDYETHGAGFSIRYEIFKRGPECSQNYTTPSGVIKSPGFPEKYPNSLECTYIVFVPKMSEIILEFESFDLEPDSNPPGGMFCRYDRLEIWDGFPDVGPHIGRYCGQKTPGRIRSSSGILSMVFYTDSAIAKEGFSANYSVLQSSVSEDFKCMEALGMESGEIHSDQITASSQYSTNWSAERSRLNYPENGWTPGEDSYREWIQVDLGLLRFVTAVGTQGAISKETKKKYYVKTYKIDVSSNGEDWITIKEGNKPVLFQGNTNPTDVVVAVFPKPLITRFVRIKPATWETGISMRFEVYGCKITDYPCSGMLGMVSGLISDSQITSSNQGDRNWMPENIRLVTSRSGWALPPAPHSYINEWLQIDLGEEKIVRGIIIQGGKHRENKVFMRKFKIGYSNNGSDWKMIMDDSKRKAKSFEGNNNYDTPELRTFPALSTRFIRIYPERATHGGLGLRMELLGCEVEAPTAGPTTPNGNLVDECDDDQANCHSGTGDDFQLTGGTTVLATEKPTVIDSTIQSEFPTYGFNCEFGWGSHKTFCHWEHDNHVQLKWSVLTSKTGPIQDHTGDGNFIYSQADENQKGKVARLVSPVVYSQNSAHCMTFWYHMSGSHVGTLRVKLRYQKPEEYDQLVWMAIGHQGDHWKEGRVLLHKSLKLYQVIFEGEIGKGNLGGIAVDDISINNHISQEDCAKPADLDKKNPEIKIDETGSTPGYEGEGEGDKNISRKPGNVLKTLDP
In words: pull-down; only the target purified.

Take “EGFR (endogenous, HepG2) (from UniProt P00533 25-1210) (receptor)”: the binding result is on record as “binds”.

These data come from article PMC10604416.
